Where “and” joins values, the source holds several entries; their conditions need not be identical. Identical values can stand only once.

This data set can be described thus: DNP enhanced 13C-CPMAS NMR experiments (1H polarization enhancement by microwave irradiation).
Setting [1] is: field sweep at 5 T / 140 GHz (FIG. 3).

On to “1-(2,2,6,6-tetramethyl-1-oxy-4-piperidinyl)oxy-3-(2,2,6,6-tetramethyl-1-oxy-4-piperidinyl)amino-propan-2-ol [TOTAPOL]”, for which the “1H enhancement (enhancement factor for the 1H polarization)” value (5 mM TOTAPOL, 2 M 13C-urea in d6-DMSO/D2O/H2O (60:34:6 w/w), 90 K, 5 T, 3.5 kHz MAS, measured via 13C CP signal) was ~165±20 and ~165. Further, for the setting “150 mM proline, 5 mM TOTAPOL, d8-glycerol/D2O/H2O (60:32:8 w/w), 18 s microwave irradiation, 4.8 kHz MAS, 90 K, 5 T”, the “DNP enhancement of 13C-NMR spectrum of proline” value was determined as 160. Further, under setting [1], the “maximum enhancement in field dependence of DNP enhancement” value stood at 165 and the “minimum enhancement in field dependence of DNP enhancement” value is reported as −140.

For the origin of these results see patent US7985594B2, “Biradical polarizing agents for dynamic nuclear polarization” (Massachusetts Institute of Technology, priority 2006, dated 2011).
